For at least one compound, name, drawing or mass did not settle the structure.
How the values were obtained:
[1] = test system: calcineurin (NFAT-luciferase); test: NFAT-luciferase activity assay (calcineurin activation), mouse primary acinar cells; type: cell-based; settings: 30 min pre-treatment; FK506 24 μM; CsA 16 μM; BAPTA-AM 64 μM
Experimental: (§1) NFAT-luciferase activity assay. Acinar cells were infected with Ad-NFAT-luciferase following a previously described procedure^10,15,16. The construct includes a luciferase gene placed downstream of an IL-4 promoter which contains nine tandem NFAT binding sites^10. Acinar cells were incubated with the NFAT-driven luciferase adenovirus for 1.5 hr prior to stimulation. All of the stated inhibitors were added for 30 min prior to stimulation with RC. NFAT-luciferase was measured using the luciferase assay system. Briefly, cells were spun at 1,000 rpm for 5 min, washed with PBS, and lysed using reporter lysis 5× buffer (Promega #E397A, Madison, Wis.). Samples were vortexed and spun at 12,000 g for 2 min. Supernatant was plated, and luminescence was measured using a Synergy H1 plate reader (BioTek, Winooski, Vt.) and normalized to total protein.

pancreas [2] = test: Duct manipulation (DM) mild model with intraductal Cn inhibitors; type: in vivo, mouse; settings: intraductal FK506 1 μM or CsA 10 μM
pancreas [3] = test: PEP model with intraductal Cn inhibitors delivered with radiocontrast; type: in vivo, mouse; settings: 6 hr after infusion; intraductal FK506 1 μM or CsA 10 μM
pancreatic NF-κB = test: Imaging pancreatic NF-κB bioluminescence in vivo (AAV6-NF-κB-luciferase); set-up: species or system mouse; settings: FK506 treatment (1 mg/kg)
Experimental: Imaging pancreatic NF-κB bioluminescence in vivo. An AAV6-NF-κB-luciferase reporter was constructed, expanded in HEK293 cells, and purified as previously described^18-20,39. A volume of 100 μl of virus (10^12 GCP/ml) was infused into the pancreaticobiliary duct at a rate of 10 μl/min using the same technique of RC infusion described above and recently published^21,39. After a 5-week recovery from the surgery, mice underwent PEP induction with or without FK506 treatment. At varying time points after the surgery, ranging from 2 to 36 hr, bioluminescence signals were obtained by first giving a subcutaneous injection of luciferin (150 μg/g body weight) in the scruff of the neck 15 min before the start of imaging. The mice were briefly anesthetized with isoflurane and placed in the supine position in a bioluminescent imaging chamber (IVIS spectrum imager; Perkin Elmer, Waltham, Mass.) for 3-10 min. Average pixel intensity was measured from a pancreatic region of interest (in the upper abdomen). Raw time points from each mouse were normalized to its individual baseline intensity at time zero.

[4] = test system: calcineurin (NFAT-luciferase); test: NFAT-luciferase activity assay, AR42J cells; type: cell-based; settings: pretreatment; FK506 24 μM; CsA 16 μM; U73122 5 μM; 2-APB 100 μM; BAPTA 64 μM
Experimental: as §1

[5] = Dissolution in ready-to-use iohexol formulation; type: physicochemical; settings: FK506 1 μM; CsA 10 μM
pancreatic acinar cells = test: ATP level measurements in pancreatic acinar cells; type: cell-based, mouse; settings: RC 12% for 3.5 hr ± FK506
Experimental: ATP level measurements. Following isolation, pancreatic acinar cells were cultured in DMEM/F12 Medium (0.5 ml/well of a 48-well plate) at 37° C. water bath and treated with RC±FK506. Cells were collected at indicated time points and lysed in 100 μl lysis buffer (100 mM Tris pH 7.75, 4 mM EDTA). ATP levels were measured from 20 μl aliquots of acinar cell lysates using the ENLITEN luciferase/luciferin reagent (Promega catalog no. FF2021).

pancreas [6] = test: Intra-ductal RC infusion (PEP model) in mice: histological severity, serum amylase; type: in vivo, mouse
Source text: Intra-ductal RC infusion in mice. The procedure for retrograde infusion into the CBD and pancreatic duct has been described before^14. Briefly, Swiss Webster mice were anesthetized with isoflurane. A midline incision was made to reveal the abdominal cavity. The duodenum was flipped to reveal its distal side and held in place by ligatures. […] needle was inserted through the anti-mesenteric aspect of the duodenum to cannulate the CBD. A small bull dog clamp was applied to the distal CBD (near the duodenum) to prevent back flow of the infusate into the duodenal lumen and to hold the cannula in place. A larger bull dog clamp was applied to the proximal CBD (near the liver) to prevent infusion into the liver and thus to direct flow to the pancreatic duct. Total volumes of 50-100 μl of iohexol, iopamidol, or normal saline (NS) were infused at 10-20 μl per min for 5 min using a P33 perfusion pump (Harvard Apparatus, Holliston, Mass.). Upon completion of the infusion, the bull dog clamps were released. The exterior abdominal wound was closed using 7 mm wound clips, and a single injection of buprenorphine (0.075 mg/kg) was given immediately after the surgery. Mice recovered on a heating pad for 30 min after the procedure. They were given free access to food and water after the surgery. Pancreas tissue preparation, histological grading, and serum amylase. The pancreas, duodenum, and spleen were fixed at room temperature for 24 hr in 4% paraformaldehyde. Paraffin-embedded sections were stained with hematoxylin an eosin (HE) and graded using a 20× objective over 10 separate fields in a blinded fashion. Pancreas tissue was graded for edema, inflammatory infiltrate, and necrosis as described by Wildi et al.^67. Whole blood samples were centrifuged at 1500×g for 5 min at 4° C. Serum amylase was measured using a Phadebas kit (Amersham Pharmacia, Rochester N.Y.) as previously described^68.

AR42J cells = test: Cell necrosis assay (propidium iodide uptake), AR42J cells; type: cell-based; settings: FK506 24 μM; CsA 16 μM
pancreas [7] = settings: in vivo model of PEP in mice; earlier work of the authors; cited from earlier work
[8] = test system: IL-6, GADD45B, IL-1β gene expression; test: Real-time PCR of pancreatic head (IL-6, GADD45B, IL-1β); type: in vivo, mouse; settings: FK506 pretreatment, RC infusion
Experimental: RNA extraction from whole pancreas and real-time PCR. Total RNA from the pancreatic head was obtained by homogenizing 40 mg of tissue in 2 ml of TRIzol reagent (Life Technologies; Grand Island N.Y.) at 4° C. and immediately flash frozen in liquid nitrogen. Samples were thawed on ice and centrifuged at 12,000×g for 10 min at 4° C. The supernatant was diluted with 200 μl of chloroform and centrifuged at 12,000×g for 15 min at 4° C. The upper aqueous phase was treated with 0.5 ml of isopropanol and centrifuged at 10,000×g for 10 min at 4° C. The pellet was resuspended with 150 μl of 75% ethanol and centrifuged at 7500×g for 5 min at 4° C. The pellet was air-dried and dissolved in 100 μl of nuclease-free water. Total RNA samples were used to generate cDNA using the iScript Advanced cDNA synthesis Kit (Bio Rad; Hercules, Calif.).
Quantitative real-time PCR (rtPCR) was performed to determine the relative expression of the cytokines IL-6 and IL-1β as well as the cell growth arrest and DNA-damage inducible gene GADD45B. The primer pairs for each as well as a GAPDH control were obtained as part of the PrimePCR-PreAMP SYBR Green Assay (Bio Rad; unique assay ID #qMmuCEP0054186, qMmuCID0005641, qMmuCEP0039581). rtPCR reactions were carried out in 20 μl volume reactions using the SsoAdvanced Universal Supermix SYBR Green system (Bio Rad). The reactions contained 1× SsoAdvanced Universal SYBR Green Supermix, 300 nM forward Primer, 300 nM reverse primer and 100 ng cDNA. rtPCR conditions were 95° C. for 10 sec and 60° C. for 30 sec for 35 cycles on a Bio Rad CFX96 Touch thermocycler (Bio Rad). Results for the expression of mRNA were normalized to expression of 18S rRNA and are represented relative to expression levels for each of the control groups.

primary acinar cells = test: Cell necrosis assay (propidium iodide uptake), primary acinar cells; type: cell-based, mouse; settings: 6 hr incubation; U73122 5 μM; 2-APB 100 μM; BAPTA 64 μM; IKK-2 20 μM; FK506 24 μM; CsA 16 μM
Experimental: Cell necrosis assay. Acinar cells were incubated in a 48-well plate with 50 μg/ml of propidium iodide (PI) for 30 min prior to addition of RC. Fluorescence was measured at 536 nm excitation and 617 nm emission wavelengths over time a time course of up to 6 hr. Fluorescence was measured after cell lysis with 0.5% Triton-X 100 was used to normalize the results relative to total DNA.

C=CC[C@@H]1/C=C(\C)C[C@H](C)C[C@H](OC)[C@H]2O[C@@](O)(C(=O)C(=O)N3CCCC[C@H]3C(=O)O[C@H](/C(C)=C/[C@@H]3CC[C@@H](O)[C@H](OC)C3)[C@H](C)[C@@H](O)CC1=O)[C@H](C)C[C@@H]2OC [FK506]
effect on RC (9%)-induced rise in NFAT-luciferase [1]: largely prevented | effect on mild histological damage seen with DM (pancreas [2]): did not affect | serum amylase elevations seen with PEP (pancreas [3]): reduced | effect on RC-induced pancreatic NF-κB bioluminescence (pancreatic NF-κB): markedly blunted | effect on RC (6%)-induced NFAT-luciferase activity [4]: prevented | dissolution in the ready-to-use iohexol formulation [5]: easily dissolved | effect on RC-induced ATP depletion (pancreatic acinar cells): failed to prevent ATP depletion | serum amylase (pancreas [6]; FK506 1 mg/kg intraperitoneal 1 hr prior to RC and 2.5, 5.5, 12 hr after): reduced down to the level of the NS sham condition | histological severity of the pancreas following RC-induced pancreatitis (pancreas [6]; FK506 1 mg/kg intraperitoneal 1 hr prior to RC and 2.5, 5.5, 12 hr after, measured 24 hr): prevented | effect compared with therapeutic administration of indomethacin (pancreas [6]; FK506 1 mg/kg vs indomethacin 7 mg/kg IP after RC infusion): as robust as | effect of administration after PEP induction on RC-induced pancreatitis (pancreas [6]; given after the infusion of RC (FK506 1 mg/kg), 24 hr): reduces pancreatic inflammation | effect on RC (12%)-induced acinar cell necrosis (AR42J cells): prevented | effect of systemic, frequent prophylactic dosing on PEP (pancreas [7]): prevented PEP | effect on gene expression of GADD45B [8]: significant reduction | effect on gene expression of IL-1β [8]: trend toward reduction | effect on gene expression of IL-6 [8]: significant reduction | effect on RC (12%)-induced acinar cell injury (PI uptake) (primary acinar cells): prevented

Reference: US10898592B2, “Compositions and methods for reducing the risk of post-imaging pancreatitis” (University Of Pittsburgh—Of The Commonwealth System Of …, priority 2015, dated 2021)
